# Measurements taken from patent US10232013B2, “Use of an antimicrobial peptide TP4 in treating a cancer” (Academia Sinica, priority 2016, dated 2019).
# Not every detail of the peptide structures is certain; ends, links or a residue may be inferred. Where no end group is shown, it is not given here.
# What was measured:
# FRA1 in MB231 cells = test: Western blot of FRA1 level; format: cell-based, human; conditions: MB231, TP4 treatment, immunoblotting
# [1] = test system: phospho-JNK in MB231 cells; test: Western blot of active JNK, MB231; format: cell-based, human; conditions: TNBC (MB231) cells, TP4 treatment
# MB231 (MDA-MB231) cells = test: MTS cell viability assay, MB231; format: cell-based, human; conditions: MDA-MB231, TP4 15 μg mL−1 (5.03 μM), 6 h
# Method: (§1) Cell-lines used in this study were purchased from the Bioresource Collection and Research Center (BCRC) in and the cells were cultured by the standard cell culture procedures and conditions provided by the BCRC. MB231 (BCRC 60425), MB453 (BCRC 60429), and HDF cells were cultured as previously described by Ting et al. MCF7 […] cells were maintained in α-MEM medium (ThermoFisher Scientific) supplemented with 2 mM L-glutamine, 10% FBS, 0.1 mM non-essential amino acids, 1 mM sodium pyruvate, and antibiotics (100 U mL^−1 penicillin G and […] streptomycin). M10 (BCRC 60197) cells were maintained in α-MEM medium (ThermoFisher Scientific) supplemented with 10% FBS and antibiotics. With the exception of MB231 and MB453, all cells were cultured at 37° C. with 5% CO2. […] For the transfection assays, cells were transfected with 0.1-0.4 μg FOSB/FOSAB expression plasmid (Origene Technology Inc.) and cell viability was determined after 72 h. The transfection efficiencies (number of cells expressing eGFP/all cells) of the MB231 transfection assays were determined by observing ten randomly selected fields (from three independent transfections) of control GFP plasmid transfections under an inverted microscope (Olympus, IX71) coupled to a digital camera (Olympus DP80), using an […] (LCPlanFI 20×/0.40 Ph1). […]
# phospho-JNK in HDF cells = test: Western blot of active JNK, HDF; format: cell-based, human; conditions: control HDF cells, TP4 treatment
# MB231 cells [2] = test: TUNEL staining, MB231; format: cell-based, human; conditions: MB231, TP4 14 μg/mL, 3 or 6 h
# immune gene expression = test: Quantitative real-time PCR of immune genes in zebrafish; format: in vivo, zebrafish (Danio rerio)
# MCF7 cells = test: MTS cell viability assay, MCF7; format: cell-based, human; conditions: MCF7, TP4 15 μg mL−1 (5.03 μM), 6 h
# Method: as §1
# [3] = test system: FRA1 in MB231 nuclear extracts; test: AP-1 transcription factor activation assay, FRA1; format: cell-based, human; conditions: TP4-treated, P=0.5593
# [4] = test system: FOSB in MB231 nuclear extracts; test: AP-1 transcription factor activation assay, FOSB; format: cell-based, human; conditions: TP4-treated, OD450, P<0.001
# MB231 (TNBC) xenografts = test: TNBC xenograft zebrafish model; format: in vivo, zebrafish (Danio rerio)
# MB231 cells [5] = test: Transcriptome (microarray) analysis, GO/KEGG; format: cell-based, human; conditions: TNBC (MB231) cells, TP4 14 μg/mL, 6 h
# [6] = single treatment TP4 3 μg mL−1, time-lapse 48 h
sequence,measurement,setting,value
"FIHHIIGGLFSAGKAIHRLIRRRRR [TP4, tilapia piscidin 4]",level of FRA1,FRA1 in MB231 cells,not affected
same,active form of JNK,[1],significantly decreased
same,BC cells killed,MB231 (MDA-MB231) cells,over 50%
same,active form of JNK decreased,phospho-JNK in HDF cells,not in control HDF cells
same,DNA fragmentation (TUNEL staining),MB231 cells [2],very limited DNA fragmentation
same,immune responsive gene expression,"immune gene expression; TNBC xenograft zebrafish embryos, around day 2, vs un-treated",significantly enhance
same,Tnfα expression,"immune gene expression; wildtype zebrafish, TP4 3 μg mL−1 daily, vs un-treated",no significant effects
same,immune gene expression over time,"immune gene expression; wildtype zebrafish, TP4 3 μg mL−1 daily, except some time-points",significant decrease
same,BC cells killed,MCF7 cells,over 50%
same,increase of FRA1 activity vs mock control,[3],not observed
same,increase of FOSB activity vs mock control,[4],2.8 fold
same,eGFP fluorescent intensity,"MB231 (TNBC) xenografts; TNBC xenograft zebrafish, TP4 3 μg mL−1, days 2-5, vs mock, P<0.001",significantly decreased
same,numbers of disseminated tumor foci,"MB231 (TNBC) xenografts; TP4 3 μg mL−1 daily, P<0.01 at day 1 vs non-treated",decreased
same,xenograft tumor area,"MB231 (TNBC) xenografts; TP4 3 μg mL−1 daily, P<0.05 vs non-treated",decreased
same,xenograft TNBC tumor area,MB231 (TNBC) xenografts; [6],gradual decrease
same,xenograft fluorescence intensity,MB231 (TNBC) xenografts; [6],gradual decrease
same,FOSB whole-mount staining of TNBC cells,"MB231 (TNBC) xenografts; xenograft zebrafish, TP4 3 μg mL−1 for 5 d",positive FOSB staining
same,"expression of FOS members (FOSB, c-FOS) and ATF3, microarray",MB231 cells [5],significantly induced
